# Test results from patent publication US20170189504A1, “NOVEL PEPTIDES AND COMBINATION OF PEPTIDES FOR USE IN IMMUNOTHERAPY AGAINST VARIOUS CANCERS” (immatics biotechnologies GmbH, priority 2015, published 2017).
# For some of these results: Expression grades refer to the transcript from which the peptide derives; gene names, where given, were looked up from the sequence.
# Experiments:
# HLA-A*02 = assay: Identification and relative LC-MS quantitation of HLA-A*02-presented tumor-associated peptides on tissue samples (presentation profiles, Tables 13A, 13B, 15, FIG. 1); set-up: species or system human; key to Presentation score NHL / Presentation score CLL / Presentation score BRCA / Presentation score AML / Presentation score GB / Presentation score NSCLC / Presentation score GBC_CCC / Presentation score UEC / Presentation score MEL / Presentation score OSCAR / Presentation score GC / Presentation score UBC / Presentation score OC / Presentation score RCC / Presentation score CRC / Presentation score PCA / Presentation score HCC / Presentation score PC / Presentation score SCLC: specifically presented on tumors (++++); very highly over-presented on tumors compared to a panel of normal tissues (+++); highly over-presented on tumors compared to a panel of normal tissues (++); over-presented on tumors compared to a panel of normal tissues (+)
# source genes (mRNA) [1] = assay: Gene and exon expression of source genes, TCGA tumor samples compared with normal tissue samples (Lonsdale, 2013) (Table 17); set-up: species or system human
# source genes (mRNA) [2] = assay: Expression profiling of source genes by in-house RNASeq of tumor and normal tissues (Table 18, FIG. 2); set-up: species or system human; key: very highly over-expressed in tumors compared to a panel of normal tissues (+++); highly over-expressed in tumors compared to a panel of normal tissues (++); over-expressed in tumors compared to a panel of normal tissues (+); settings: source gene of peptide
substance,measurement,setting,value
232: peptide found in GART (gene looked up) (KIFPAALQLV; listed as Homo sapiens) [compound 232],Presentation score CRC,"HLA-A*02; HLA-A*02 peptides, colorectal cancer (N = 28) vs panel of normal tissues (N = 262)",+
same,Presentation score HCC,"HLA-A*02; HLA-A*02 peptides, hepatocellular carcinoma (N = 16) vs panel of normal tissues (N = 262)",++
same,Presentation score SCLC,"HLA-A*02; HLA-A*02 peptides, small cell lung cancer (N = 19) vs panel of normal tissues (N = 262)",++
same,Peptide Presentation on cancer entities,"HLA-A*02; Table 13A, HLA-A*02-binding tumor-associated peptides, cancer entities on which the peptide was found presented","NSCLC, HCC, CLL, OC, SCLC, UBC, UEC, GBC_CCC, CRC, NHL"
same,"Over-expression category of source gene (target coverage), BLCA","source genes (mRNA) [1]; BLCA = Bladder urothelial carcinoma (N = 408), same cutoff",A (>=50% of tumors above the cutoff)
same,"Over-expression category of source gene (target coverage), BRCA","source genes (mRNA) [1]; BRCA = Breast cancer (N = 1104), tumors more than 2-fold above highest 75% percentile of normal tissues","B (>= 20% of tumors above the cutoff, but <50%)"
same,"Over-expression category of source gene (target coverage), CHOL","source genes (mRNA) [1]; CHOL = Cholangiocarcinoma (N = 36), same cutoff","B (>= 20% of tumors above the cutoff, but <50%)"
same,"Over-expression category of source gene (target coverage), COAD","source genes (mRNA) [1]; COAD = Colon and rectal adenocarcinoma (N = 462), same cutoff",A (>=50% of tumors above the cutoff)
same,"Over-expression category of source gene (target coverage), DLBC","source genes (mRNA) [1]; DLBC = Lymphoid neoplasm diffuse large B-cell lymphoma (N = 48), same cutoff",A (>=50% of tumors above the cutoff)
same,"Over-expression category of source gene (target coverage), ESCA","source genes (mRNA) [1]; ESCA = Esophageal cancer (N = 185), same cutoff","B (>= 20% of tumors above the cutoff, but <50%)"
same,"Over-expression category of source gene (target coverage), GBM","source genes (mRNA) [1]; GBM = Glioblastoma multiforme (N = 169), same cutoff","C (>=5% of tumors above the cutoff, but <20%)"
same,"Over-expression category of source gene (target coverage), LAML","source genes (mRNA) [1]; LAML = Acute Myeloid Leukemia (N = 173), same cutoff","C (>=5% of tumors above the cutoff, but <20%)"
same,"Over-expression category of source gene (target coverage), LIHC","source genes (mRNA) [1]; LIHC = Liver hepatocellular carcinoma (N = 374), same cutoff","C (>=5% of tumors above the cutoff, but <20%)"
same,"Over-expression category of source gene (target coverage), LUAD","source genes (mRNA) [1]; LUAD = Lung adenocarcinoma (N = 517), same cutoff","C (>=5% of tumors above the cutoff, but <20%)"
same,"Over-expression category of source gene (target coverage), LUSC","source genes (mRNA) [1]; LUSC = Lung squamous cell carcinoma (N = 503), same cutoff","B (>= 20% of tumors above the cutoff, but <50%)"
same,"Over-expression category of source gene (target coverage), OV","source genes (mRNA) [1]; OV = Ovarian serous cystadenocarcinoma (N = 309), same cutoff","B (>= 20% of tumors above the cutoff, but <50%)"
same,"Over-expression category of source gene (target coverage), PAAD","source genes (mRNA) [1]; PAAD = Pancreatic ductal adenocarcinoma (N = 179), same cutoff","C (>=5% of tumors above the cutoff, but <20%)"
same,"Over-expression category of source gene (target coverage), READ","source genes (mRNA) [1]; READ = Colon and rectal adenocarcinoma (N = 167), same cutoff",A (>=50% of tumors above the cutoff)
same,"Over-expression category of source gene (target coverage), SKCM","source genes (mRNA) [1]; SKCM = Skin cutaneous melanoma (N = 473), same cutoff","B (>= 20% of tumors above the cutoff, but <50%)"
same,"Over-expression category of source gene (target coverage), STAD","source genes (mRNA) [1]; STAD = Stomach adenocarcinoma (N = 415), same cutoff","B (>= 20% of tumors above the cutoff, but <50%)"
same,"Over-expression category of source gene (target coverage), UCEC","source genes (mRNA) [1]; UCEC = Uterine corpus endometrial carcinoma (N = 546), same cutoff","B (>= 20% of tumors above the cutoff, but <50%)"
same,Expression score AML,source genes (mRNA) [2]; acute myeloid leukemia (N = 11) vs panel of normal tissues,+
same,Expression score CRC,source genes (mRNA) [2]; colorectal cancer (N = 20) vs panel of normal tissues,+
same,Expression score OSCAR,source genes (mRNA) [2]; esophageal cancer incl. gastric-esophageal junction (N = 11) vs panel of normal tissues,+
same,Expression score GBC_CCC,source genes (mRNA) [2]; gallbladder adenocarcinoma and cholangiocarcinoma (N = 3) vs panel of normal tissues,+
same,Expression score NHL,source genes (mRNA) [2]; non-Hodgkin lymphoma (N = 10) vs panel of normal tissues,++
same,Expression score NSCLC,source genes (mRNA) [2]; non-small cell lung cancer (N = 11) vs panel of normal tissues,+
same,Expression score OC,source genes (mRNA) [2]; ovarian cancer (N = 12) vs panel of normal tissues,+
same,Expression score SCLC,source genes (mRNA) [2]; small cell lung cancer (N = 10) vs panel of normal tissues,+
same,Expression score UBC,source genes (mRNA) [2]; urinary bladder cancer (N = 10) vs panel of normal tissues,+
same,Expression score UEC,source genes (mRNA) [2]; uterine cancer (N = 10) vs panel of normal tissues,+
